# Test results published in the supplement of paper PMC9135407.
# Where “and” joins values, the source holds several entries; their conditions need not be identical. Equal entries are not always repeated. Structures can show the parent of a compound that is named as a salt. ± gives the standard deviation of the averaged measurements. This is one part of the list. Part of the spread comes from offsets between plates or batches.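 Assay uses culture-activated primary human stellate myofibroblasts; lipid droplet recovery indicates inactivation. Measured: proportion of Hoechst-counted cells over a plate-specific Bodipy cutoff, duplicate wells, DMSO and nortriptyline as per-plate negative and positive controls. A hit scores, control-normalized, above the plate's top-tenth-percentile nortriptyline wells or ranks among its three best wells. Final well concentrations not reported.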
# Tested on: primary human hepatic stellate cells (donor 1)
# Assay: percent Bodipy-positive cells; higher = more lipid droplet accumulation
# Settings: 48 h
# [1] = library stock concentration: 10 mM
# [2] = library stock concentration: 3.33 mM
# [3] = library stock concentration: 80 uM
# [4] = library stock concentration: 400 uM
# [5] = library stock concentration: 2 mM
# [6] = library stock concentration: 1 mM
structure (smiles),measurement,setting,value
Fc1ccc([C@@H]2CCNC[C@H]2COc2ccc3c(c2)OCO3)cc1 [Paroxetine hydrochloride hemihydrate (MW = 374.83)],percent Bodipy-positive cells,[1],98.3 ± 1.1%
Fc1ccc([C@@H]2CCNC[C@H]2COc2ccc3c(c2)OCO3)cc1 [Paroxetine hydrochloride],percent Bodipy-positive cells,[1],80.5 ± 5.7%
Fc1ccc([C@@H]2CCNC[C@H]2COc2ccc3c(c2)OCO3)cc1 [Paroxetine],percent Bodipy-positive cells,[1],99.83 ± 0.23%
Fc1ccc([C@@H]2CCNC[C@H]2COc2ccc3c(c2)OCO3)cc1 [Paroxetine HCl],percent Bodipy-positive cells,[1],93.88 ± 0.18%
Nc1nc(O)c2ncn(CCC(CO)CO)c2n1 [Penciclovir],percent Bodipy-positive cells,[2],11.5 ± 2.7%
same,percent Bodipy-positive cells,library stock concentration: 7.9 mM,5.23 ± 1.6%
same,percent Bodipy-positive cells,[1],31.3 ± 12%
Nc1nc(O)c2ncn(CCC(CO)CO)c2n1,percent Bodipy-positive cells,[1],8.61 ± 1.7%
Clc1ccc(Nc2nnc(Cc3ccncc3)c3ccccc23)cc1 [Vatalanib (PTK787) 2HCl],percent Bodipy-positive cells,[2],7.3 ± 1.8%
same,percent Bodipy-positive cells,[1],14.3 ± 1.1%
Clc1ccc(Nc2nnc(Cc3ccncc3)c3ccccc23)cc1 [Vatalanib],percent Bodipy-positive cells,library stock concentration: 5.8 mM,7.19 ± 0.22%
Cn1cc(-c2ccc3nnc(Sc4ccc5ncccc5c4)n3n2)cn1,percent Bodipy-positive cells,[3],9.43 ± 1.4%
same,percent Bodipy-positive cells,[4],10.1 ± 1.8%
same,percent Bodipy-positive cells,[5],8.51 ± 3.3%
same,percent Bodipy-positive cells,[2],7.41 ± 1.6%
same,percent Bodipy-positive cells,[1],17.4% and 7.41%
O=C1NC(=O)/C(=C/c2cccc(C(F)(F)F)c2)S1,percent Bodipy-positive cells,[4],13.2 ± 7%
same,percent Bodipy-positive cells,[5],14.4 ± 0.74%
same,percent Bodipy-positive cells,[2],26.8 ± 0.62%
same,percent Bodipy-positive cells,[1],26% and 31.8%
Cc1cc(O)c2c(c1)C(=O)c1cc(O)cc(O)c1C2=O [Emodin],percent Bodipy-positive cells,[2],7.67 ± 1.6%
same,percent Bodipy-positive cells,[1],11.7% and 27%
COC(=O)c1ccc2c(C(=Nc3ccc(N(C)C(=O)CN4CCN(C)CC4)cc3)c3ccccc3)c(O)[nH]c2c1,percent Bodipy-positive cells,[3],39.7 ± 1.7%
same,percent Bodipy-positive cells,[4],58.1 ± 7.4%
same,percent Bodipy-positive cells,[5],35.5 ± 1.9%
FC(F)(F)c1cccc(-c2noc(-c3cc(-c4ccccc4)c(C(F)(F)F)s3)n2)c1,percent Bodipy-positive cells,[6],8.06 ± 0.8%
same,percent Bodipy-positive cells,[1],9.38 ± 2.1%
CN1CCC(OC(c2ccccc2)c2ccccc2)CC1 [Diphenylpyraline hydrochloride],percent Bodipy-positive cells,,37 ± 4.2%
same,percent Bodipy-positive cells,library stock concentration: 6.3 mM,22 ± 6.2%
same,percent Bodipy-positive cells,[1],38.6 ± 1.1%
CCOC(=O)[C@H](CCc1ccccc1)N[C@@H](C)C(=O)N1Cc2cc(OC)c(OC)cc2C[C@H]1C(=O)O [Moexipril hydrochloride],percent Bodipy-positive cells,[1],5.4 ± 1.1%
CCOC(=O)[C@H](CCc1ccccc1)N[C@@H](C)C(=O)N1Cc2cc(OC)c(OC)cc2C[C@H]1C(=O)O [Moexipril HCl],percent Bodipy-positive cells,[2],8.1 ± 0.34%
same,percent Bodipy-positive cells,[1],16.5 ± 0.92%
O=C(Oc1cccc2cccnc12)c1ccccc1 [Benzoxiquine],percent Bodipy-positive cells,library stock concentration: 8 mM,15.5 ± 10%
C/C=C1\[C@H]2C=C(C)C[C@]1(N)c1ccc(=O)[nH]c1C2,percent Bodipy-positive cells,[1],10.2 ± 3%
C/C=C1\[C@H]2C=C(C)C[C@]1(N)c1ccc(=O)[nH]c1C2 [(-)-Huperzine A],percent Bodipy-positive cells,library stock concentration: 20.6 mM,39.8 ± 11%
CN1CCN(C2CCN(C(=O)Nc3cc(Oc4ccc(NC(=O)C5(C(=O)Nc6ccc(F)cc6)CC5)c(F)c4)ccn3)CC2)CC1 [Golvatinib (E7050)],percent Bodipy-positive cells,[1],97.7 ± 1%
C[N+](C)(C)CCO.[Cl-] [Choline chloride],percent Bodipy-positive cells,[1],38.1 ± 8.1%
same,percent Bodipy-positive cells,library stock concentration: 14.3 mM,12.8 ± 5.7%
C[N+](C)(C)CCO.[Cl-] [Choline Chloride],percent Bodipy-positive cells,[2],12 ± 4.1%
same,percent Bodipy-positive cells,[1],34.2 ± 0.56%
O=c1[nH]cnc2[nH]ncc12 [Allopurinol Sodium],percent Bodipy-positive cells,[2],9.79 ± 4.6%
same,percent Bodipy-positive cells,[1],13.2 ± 1.3%
"Nc1ccc2c3c(cccc13)C(=O)NC2=O [4-Amino-1,8-naphthalimide]",percent Bodipy-positive cells,library stock concentration: 23.6 mM,74.8 ± 1.3%
CCCCC/C=C/C/C=C/CCCCCCCC(=O)O [Linoelaidic Acid],percent Bodipy-positive cells,[6],9.95 ± 0.85%
O=C(O)CSCC(=O)NC1CCSC1=O (configuration not stated),percent Bodipy-positive cells,[1],26.4 ± 4.2%
O=C(O)CSCC(=O)NC1CCSC1=O (configuration not stated) [Erdosteine],percent Bodipy-positive cells,[2],5.69 ± 2.2%
same,percent Bodipy-positive cells,[1],13.9 ± 0.24%
Cc1cc2c(F)c(Oc3ncnn4cc(OC[C@@H](C)O)c(C)c34)ccc2[nH]1 [Brivanib],percent Bodipy-positive cells,[3],10.6 ± 4.8%
same,percent Bodipy-positive cells,[4],12.9 ± 1.3%
same,percent Bodipy-positive cells,[5],16.6 ± 5.5%
same,percent Bodipy-positive cells,[1],12.2 ± 3.3%
Cc1cc2c(F)c(Oc3ncnn4cc(OC[C@@H](C)O)c(C)c34)ccc2[nH]1,percent Bodipy-positive cells,[2],5.26 ± 1.2%
same,percent Bodipy-positive cells,[1],17.5 ± 0.24%
O=C1C(SCCO)=C(SCCO)C(=O)c2ccccc21,percent Bodipy-positive cells,[1],100%
"CCCCCCCC/C=C\CCCCCCCC(=O)OCC(CO)OC(=O)CCCCCCC/C=C\CCCCCCCC (configuration not stated) [1,2-Dioleoyl-glycerol (18:1)]",percent Bodipy-positive cells,[6],6.76 ± 4%
COc1cc(/C=C/C(=O)CC(=O)/C=C/c2ccc(O)c(OC)c2)ccc1O [Curcumin],percent Bodipy-positive cells,[6],6.28 ± 2.8%
same,percent Bodipy-positive cells,[2],13 ± 2.2%
same,percent Bodipy-positive cells,[1],21.4 ± 10%
same,percent Bodipy-positive cells,library stock concentration: 13.6 mM,92.9 ± 2.2%
Cc1cc2nc3c(=O)[nH]c(=O)nc-3n(CC(O)C(O)C(O)COP(=O)(O)O)c2cc1C (configuration not stated),percent Bodipy-positive cells,[1],33.7 ± 1.9%
CC(C)CN(C[C@@H](O)[C@H](Cc1ccccc1)NC(=O)O[C@H]1CO[C@H]2OCC[C@H]21)S(=O)(=O)c1ccc(N)cc1 [Darunavir Ethanolate],percent Bodipy-positive cells,[2],9.55 ± 4.7%
same,percent Bodipy-positive cells,[1],17.2 ± 1.9%
CCC(O)/C=C/C=O (configuration not stated) [4-hydroxy Hexenal],percent Bodipy-positive cells,[6],15.1 ± 2%
NCC[C@H](O)C(=O)N[C@@H]1C[C@H](N)[C@@H](O[C@H]2O[C@H](CN)[C@@H](O)[C@H](O)[C@H]2O)[C@H](O)[C@H]1O[C@H]1O[C@H](CO)[C@@H](O)[C@H](N)[C@H]1O [Amikacin sulfate],percent Bodipy-positive cells,library stock concentration: 2.6 mM,2.1 ± 0.6%
same,percent Bodipy-positive cells,[1],18.1 ± 5.2%
NCC[C@H](O)C(=O)N[C@@H]1C[C@H](N)[C@@H](O[C@H]2O[C@H](CN)[C@@H](O)[C@H](O)[C@H]2O)[C@H](O)[C@H]1O[C@H]1O[C@H](CO)[C@@H](O)[C@H](N)[C@H]1O [Amikacin hydrate],percent Bodipy-positive cells,,30.9 ± 1.3%
COc1ccc(CCN(C)CCCOc2ccc(S(=O)(=O)c3c(C(C)C)c4ccccc4n3C)cc2)cc1OC,percent Bodipy-positive cells,[1],100%
CCCCCCN(CCCCCC)C(=O)Cc1c(-c2ccc(Cl)cc2)[nH]c2ccc(Cl)cc12,percent Bodipy-positive cells,[1],7.7 ± 1.4%
O=C1c2cccc3c2[C@H](CCC3)CN1[C@@H]1CN2CCC1CC2,percent Bodipy-positive cells,[1],39.2 ± 7.2%
COc1c(C=O)c(O)cc2c1C(=O)c1ccccc1C2=O [Damnacanthal],percent Bodipy-positive cells,library stock concentration: 17.7 mM,14.28 ± 0.12%
C/C(=N\NC(=O)C1C(=O)NCC1c1ccccc1)c1cccc(Br)c1 (configuration not stated),percent Bodipy-positive cells,[1],7.53 ± 2%
NCCCCCCCCCCNS(=O)(=O)c1cccc2c(Cl)cccc12 [A-7 hydrochloride],percent Bodipy-positive cells,[1],94.8 ± 3.2%
CN(C)[C@@H]1C(=O)C(C(N)=O)=C(O)[C@@]2(O)C(=O)C3=C(O)c4c(O)ccc(Cl)c4[C@@H](O)[C@H]3C[C@@H]12 [Demeclocycline HCl],percent Bodipy-positive cells,[2],14.4 ± 8.5%
same,percent Bodipy-positive cells,[1],32.9 ± 0.65%
CN(C)[C@@H]1C(=O)C(C(N)=O)=C(O)[C@@]2(O)C(=O)C3=C(O)c4c(O)ccc(Cl)c4[C@@H](O)[C@H]3C[C@@H]12 [Demeclocycline hydrochloride],percent Bodipy-positive cells,[1],54.8 ± 13%
COc1c2c(nc3ccccc13)OC(C(C)(O)CO)C2 (configuration not stated) [Dubinidine],percent Bodipy-positive cells,,10.5 ± 3.7%

# Random excerpt: two records from the list
structure (smiles),measurement,setting,value
COC(=O)c1ccc2c(C(=Nc3ccc(N(C)C(=O)CN4CCN(C)CC4)cc3)c3ccccc3)c(O)[nH]c2c1,percent Bodipy-positive cells,[5],35.5 ± 1.9%
NCC[C@H](O)C(=O)N[C@@H]1C[C@H](N)[C@@H](O[C@H]2O[C@H](CN)[C@@H](O)[C@H](O)[C@H]2O)[C@H](O)[C@H]1O[C@H]1O[C@H](CO)[C@@H](O)[C@H](N)[C@H]1O [Amikacin sulfate],percent Bodipy-positive cells,library stock concentration: 2.6 mM,2.1 ± 0.6%
